Common to all, as to test: EMSA
For one data set, the target named is ALKBH5 (Homo sapiens) (UniProt Q6P6C2). The conditions noted are these: 1 mM MgCl2, authors suspect biotin label blocks binding (unlabelled 25 binds in MST); m6A at position 5; EMSA: 10 mM HEPES pH 7.3, 5% glycerol, 20 mM KCl, 1 mM MgCl2, 1 mM DTT, RNasin, 4 nM RNA, 4 C; recombinant protein; residues 66-292; protein details: His6 (pNIC28-Bsa4); label: 3' biotin.

Protein sequences, listed by entry. Tags and fused reporters are not part of them. Residues count along the entry.
UniProt Q6P6C2, 66-292: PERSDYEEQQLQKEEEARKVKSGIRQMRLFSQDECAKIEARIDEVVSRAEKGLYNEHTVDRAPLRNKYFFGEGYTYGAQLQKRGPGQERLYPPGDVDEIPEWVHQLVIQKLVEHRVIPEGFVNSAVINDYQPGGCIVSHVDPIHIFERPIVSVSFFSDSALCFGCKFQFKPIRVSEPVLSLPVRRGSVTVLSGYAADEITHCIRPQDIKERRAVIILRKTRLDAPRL

The next data set addresses FTO (Homo sapiens) (UniProt Q9C0B1). The conditions noted are these: 1 mM MgCl2, authors suspect biotin label blocks binding (unlabelled 25 binds in MST); m6A at position 5; EMSA: 10 mM HEPES pH 7.3, 5% glycerol, 20 mM KCl, 1 mM MgCl2, 1 mM DTT, RNasin, 4 nM RNA, 4 C; recombinant protein; residues 1-505; protein details: His6 (pNIC28-Bsa4); label: 3' biotin. On the technique in general: Mobility shift assays separate free from complexed probe on a gel.

The next data set addresses T1, YTHDF2 (Homo sapiens) (UniProt Q9Y5A9).
T1 sequence (looked up): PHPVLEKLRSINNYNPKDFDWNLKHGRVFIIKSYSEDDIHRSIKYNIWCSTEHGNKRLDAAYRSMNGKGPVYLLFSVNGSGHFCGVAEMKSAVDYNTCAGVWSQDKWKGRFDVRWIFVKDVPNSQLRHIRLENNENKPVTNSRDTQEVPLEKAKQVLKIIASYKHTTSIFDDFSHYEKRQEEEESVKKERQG
The conditions noted are these: 1 mM MgCl2, very little or no binding, up to 5 uM protein; m6A at position 5 of each strand; EMSA: 10 mM HEPES pH 7.3, 5% glycerol, 20 mM KCl, 1 mM MgCl2, 1 mM DTT, RNasin, 4 nM RNA, 4 C; recombinant protein; residues 385-576; label: 3' biotin.

A negative result means that nothing was seen under these conditions. For part of these data: Protein sequences can lack the tags named with them.

For GCGGACUCCACCGC [biotin-25], the binding result with ALKBH5 (Homo sapiens) and with FTO (Homo sapiens) was “no binding” throughout.
Turning to “GCGGACUAGUCCGC / GCGGACUAGUCCGC [biotin-15]”, the binding result in the data set with YTHDF2 (Homo sapiens) is “no binding”.

The values are drawn from paper PMC4860565.
